Measured values taken from the supplement of paper PMC8007513.
The other results are listed elsewhere or left out. Many values rest on one well or one pass, so single values are uncertain.

These compounds were tested on Saccharomyces cerevisiae BY4743 (assay: growth (OD600) with compound + IPBC relative to untreated control; higher = less growth inhibition). Details: compound concentration: 133 uM; IPBC concentration: 0.5 ug/ml; 20 h.
Protocol: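 NMCCC compounds (133 uM) combined with IPBC (0.5 ug/ml) against Saccharomyces cerevisiae BY4743 in YPD, 96-well plates. Growth was read as OD600 at 20 h and expressed as % of the untreated control. Single pass.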

Compound	growth [%]
COC(=O)c1sc2nc(C)nc(N(C)Cc3cccnc3)c2c1C + CCCCNC(=O)OCC#CI [3-iodo-2-propynyl butylcarbamate (IPBC)]	105
CN(C(=O)COCc1cc(-c2ccc(F)cc2)on1)c1ccccc1 + CCCCNC(=O)OCC#CI [3-iodo-2-propynyl butylcarbamate (IPBC)]	109
CCOC(=O)\C1=C(/COC(=O)C2=CC(=NC3=C2C(=NO3)C)C)NC(=O)NC1 + CCCCNC(=O)OCC#CI [3-iodo-2-propynyl butylcarbamate (IPBC)]	103
COc1ccc(-c2ccc3c(N)c(C(=O)NC(C)C)sc3n2)cc1OC + CCCCNC(=O)OCC#CI [3-iodo-2-propynyl butylcarbamate (IPBC)]	98
CN(C(=O)CSc1nnc(-c2cccnc2)o1)c1ccc(F)cc1 + CCCCNC(=O)OCC#CI [3-iodo-2-propynyl butylcarbamate (IPBC)]	90
CCCn1c(SCC(=O)Nc2ccc(C(N)=O)cc2)nc2ccc(C(F)(F)F)cc21 + CCCCNC(=O)OCC#CI [3-iodo-2-propynyl butylcarbamate (IPBC)]	90.8
CCCNC(=O)CN1CCN(C(=O)CCCc2nc3ccccc3s2)CC1 + CCCCNC(=O)OCC#CI [3-iodo-2-propynyl butylcarbamate (IPBC)]	91
CCC(C)NC(=O)CCc1c(C)nc2nc(-c3cc(OC)cc(OC)c3)nn2c1C (stereo not given) + CCCCNC(=O)OCC#CI [3-iodo-2-propynyl butylcarbamate (IPBC)]	106
O=C(CCSc1nnc(Nc2ccccc2F)s1)Nc1ccccc1F + CCCCNC(=O)OCC#CI [3-iodo-2-propynyl butylcarbamate (IPBC)]	89.5
CC(C)C\C1=N\N/2C(=O)\C=C(COC3=CC=C(NC(C)=O)C=C3)/N=C2S1 + CCCCNC(=O)OCC#CI [3-iodo-2-propynyl butylcarbamate (IPBC)]	81.5
CCOC(=O)c1cc(C)n(CCCN2CCOCC2)c1C + CCCCNC(=O)OCC#CI [3-iodo-2-propynyl butylcarbamate (IPBC)]	95.2
CC(C)CCn1c(SC(C)C)nc2c1c(=O)[nH]c(=O)n2C + CCCCNC(=O)OCC#CI [3-iodo-2-propynyl butylcarbamate (IPBC)]	88.5
CC(C)CCN1CCC(CNS(=O)(=O)c2ccc3c(c2)C(C)(C)C(=O)N3C)CC1 + CCCCNC(=O)OCC#CI [3-iodo-2-propynyl butylcarbamate (IPBC)]	108
CC1=CC=C(CNC(=O)CC\C2=N\[S](=O)(=O)C3=CC=CC=C3N2)O1 + CCCCNC(=O)OCC#CI [3-iodo-2-propynyl butylcarbamate (IPBC)]	109
Cc1[nH]c2ccc(C(=O)N(C)Cc3ccc(Br)s3)cc2c1C + CCCCNC(=O)OCC#CI [3-iodo-2-propynyl butylcarbamate (IPBC)]	90.1
O=C(CCNC(=O)NCc1ccccc1)NC(c1ccccc1)c1cccs1 (stereo not given) + CCCCNC(=O)OCC#CI [3-iodo-2-propynyl butylcarbamate (IPBC)]	110
CCn1cnnc1CNC(=O)NCc1ccc(NC(=O)C(F)(F)F)cc1 + CCCCNC(=O)OCC#CI [3-iodo-2-propynyl butylcarbamate (IPBC)]	102
COC(=O)\C1=C(/N)OC2=CC(=NC(=C2C1C3=CC=CC=C3)O)C (stereo not given) + CCCCNC(=O)OCC#CI [3-iodo-2-propynyl butylcarbamate (IPBC)]	86.5
COc1ccc(N(CCC(N)=O)CC(=O)NC(C)c2ccc3c(c2)OCO3)cc1 (stereo not given) + CCCCNC(=O)OCC#CI [3-iodo-2-propynyl butylcarbamate (IPBC)]	103
CCC(C(=O)N(CC)Cc1ccc2c(c1)OCCO2)c1ccccc1 (stereo not given) + CCCCNC(=O)OCC#CI [3-iodo-2-propynyl butylcarbamate (IPBC)]	97.7

Compound	growth [%]
CCOc1ccc(Oc2ccc(NC(=O)c3cc(S(=O)(=O)NC(C)C)cn3C)cc2)cc1 + CCCCNC(=O)OCC#CI [3-iodo-2-propynyl butylcarbamate (IPBC)]	98.4
CCOC(=O)c1c(C)[nH]c(C)c1S(=O)(=O)NCC(=O)N1CCN(CC)CC1 + CCCCNC(=O)OCC#CI [3-iodo-2-propynyl butylcarbamate (IPBC)]	104
COC1=CC=CC=C1C(=O)N\C2=C\N=C3\S\C=C/N3C2=O + CCCCNC(=O)OCC#CI [3-iodo-2-propynyl butylcarbamate (IPBC)]	97.6
C[S](=O)(=O)NC1=CC=CC(=C1)\C2=N\N(C(C2)C3=CC=CC=C3O)[S](C)(=O)=O (stereo not given) + CCCCNC(=O)OCC#CI [3-iodo-2-propynyl butylcarbamate (IPBC)]	105
CC(C)C1=CC=CC(=C1NC(=O)CN(C)\C2=N\[S](=O)(=O)C3=CC=CC=C23)C(C)C + CCCCNC(=O)OCC#CI [3-iodo-2-propynyl butylcarbamate (IPBC)]	105
CCOC(=O)N1CCN(C(=O)c2cc(-c3ccc(CC)cc3)[nH]n2)CC1 + CCCCNC(=O)OCC#CI [3-iodo-2-propynyl butylcarbamate (IPBC)]	93.3
CCOC(=O)c1c(-c2ccc(Cl)cc2)nn2c1NCN(CCOC)C2 + CCCCNC(=O)OCC#CI [3-iodo-2-propynyl butylcarbamate (IPBC)]	93.1
O=C(CCCN1C(=O)CSc2ncccc21)NCC1CCCO1 (stereo not given) + CCCCNC(=O)OCC#CI [3-iodo-2-propynyl butylcarbamate (IPBC)]	104
COc1cccc(CN2CCC(NC(=O)c3ccnc(N(C)C)c3)CC2)c1 + CCCCNC(=O)OCC#CI [3-iodo-2-propynyl butylcarbamate (IPBC)]	102
COCCN1\C=C/C2=C(OCC(=O)NC3=CC=C(Br)C=C3)C=CC=C2C1=O + CCCCNC(=O)OCC#CI [3-iodo-2-propynyl butylcarbamate (IPBC)]	86
CCOC(=O)c1[nH]c(C)c(C(=O)N2CCC(CC(=O)NC(C)CC)CC2)c1C (stereo not given) + CCCCNC(=O)OCC#CI [3-iodo-2-propynyl butylcarbamate (IPBC)]	80.9
CCOC(=O)c1sc(-n2nc(C)c(Cc3ccccc3)c2O)nc1C + CCCCNC(=O)OCC#CI [3-iodo-2-propynyl butylcarbamate (IPBC)]	104
CCOC(=O)c1sc(NC(=O)CSc2n[nH]c(CC(C)C)n2)nc1C + CCCCNC(=O)OCC#CI [3-iodo-2-propynyl butylcarbamate (IPBC)]	94.8
Cc1cc(Cc2ccc(S(=O)(=O)N(C)Cc3ccccc3)cc2)c(O)nn1 + CCCCNC(=O)OCC#CI [3-iodo-2-propynyl butylcarbamate (IPBC)]	92
CCN1CCN(c2ccccc2NS(=O)(=O)c2cc(Br)cc(C(=O)O)c2F)CC1 + CCCCNC(=O)OCC#CI [3-iodo-2-propynyl butylcarbamate (IPBC)]	103
CCCCc1nnc(NC(=O)COc2ccccc2-c2ccccc2)s1 + CCCCNC(=O)OCC#CI [3-iodo-2-propynyl butylcarbamate (IPBC)]	98.6
CCO/C(O)=C1/C(CC)=Nc2ccccc2N=C1NS(=O)(=O)c1cccc(C(C)=O)c1 + CCCCNC(=O)OCC#CI [3-iodo-2-propynyl butylcarbamate (IPBC)]	103
CCc1ccc(S(=O)(=O)N(CCCN2CCCC2=O)CC(=O)N2CCNCC2)cc1 + CCCCNC(=O)OCC#CI [3-iodo-2-propynyl butylcarbamate (IPBC)]	105
CSc1nc(NCCN(C)C)c(C#N)c(-c2ccc(C(C)(C)C)cc2)n1 + CCCCNC(=O)OCC#CI [3-iodo-2-propynyl butylcarbamate (IPBC)]	4.67
CCOC(=O)c1c(C)c(-c2ccccc2)n(CC(=O)NCCN2CCCCC2C)c1C (stereo not given) + CCCCNC(=O)OCC#CI [3-iodo-2-propynyl butylcarbamate (IPBC)]	108

Reprinted from the entries so far for reference:
Compound	growth [%]
CC(C)C1=CC=CC(=C1NC(=O)CN(C)\C2=N\[S](=O)(=O)C3=CC=CC=C23)C(C)C + CCCCNC(=O)OCC#CI [3-iodo-2-propynyl butylcarbamate (IPBC)]	105
CCOC(=O)N1CCN(C(=O)c2cc(-c3ccc(CC)cc3)[nH]n2)CC1 + CCCCNC(=O)OCC#CI [3-iodo-2-propynyl butylcarbamate (IPBC)]	93.3
CCOC(=O)c1c(-c2ccc(Cl)cc2)nn2c1NCN(CCOC)C2 + CCCCNC(=O)OCC#CI [3-iodo-2-propynyl butylcarbamate (IPBC)]	93.1
